In test [1] the target is T1, FLAG-tagged full-length NADK (human) (UniProt O95544).
T1 sequence: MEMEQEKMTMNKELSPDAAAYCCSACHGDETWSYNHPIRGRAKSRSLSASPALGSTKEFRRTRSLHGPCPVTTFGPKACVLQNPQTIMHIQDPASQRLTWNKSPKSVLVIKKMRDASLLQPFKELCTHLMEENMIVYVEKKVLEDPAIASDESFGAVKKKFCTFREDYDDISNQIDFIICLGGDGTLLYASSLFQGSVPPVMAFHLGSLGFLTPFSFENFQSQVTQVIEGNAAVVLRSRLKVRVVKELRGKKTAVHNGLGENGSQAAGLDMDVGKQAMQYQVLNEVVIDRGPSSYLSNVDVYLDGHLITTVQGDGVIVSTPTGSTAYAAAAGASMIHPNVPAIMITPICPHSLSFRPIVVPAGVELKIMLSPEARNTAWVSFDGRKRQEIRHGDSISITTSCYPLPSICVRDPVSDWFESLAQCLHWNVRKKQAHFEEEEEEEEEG
The test is described as follows: co-IP.

Sequences of proteins named here, by UniProt entry; tags and fusion partners are left off. A change or cut given only in a name is not applied to a line headed by its entry. Residues count along the entry.
UniProt Q96LA8, whole entry: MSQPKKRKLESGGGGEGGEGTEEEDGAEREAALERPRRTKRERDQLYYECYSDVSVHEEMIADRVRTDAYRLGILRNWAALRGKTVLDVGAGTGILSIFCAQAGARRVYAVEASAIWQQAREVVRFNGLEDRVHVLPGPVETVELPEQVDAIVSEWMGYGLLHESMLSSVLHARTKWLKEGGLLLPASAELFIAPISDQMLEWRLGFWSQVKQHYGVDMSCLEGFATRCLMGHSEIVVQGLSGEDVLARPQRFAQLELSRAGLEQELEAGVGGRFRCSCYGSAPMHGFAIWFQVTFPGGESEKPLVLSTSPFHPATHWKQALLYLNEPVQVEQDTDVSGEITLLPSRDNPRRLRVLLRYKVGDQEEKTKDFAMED
UniProt Q96LA8, 86-375: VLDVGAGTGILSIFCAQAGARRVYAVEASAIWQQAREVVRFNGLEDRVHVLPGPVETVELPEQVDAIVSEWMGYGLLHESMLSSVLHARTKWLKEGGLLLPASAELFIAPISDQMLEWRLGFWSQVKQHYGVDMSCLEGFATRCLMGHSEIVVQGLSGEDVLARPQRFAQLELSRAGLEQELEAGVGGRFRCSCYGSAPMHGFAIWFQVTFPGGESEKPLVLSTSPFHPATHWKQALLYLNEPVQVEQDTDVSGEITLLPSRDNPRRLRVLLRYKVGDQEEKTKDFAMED
UniProt Q96LA8, 1-182, stated change not applied: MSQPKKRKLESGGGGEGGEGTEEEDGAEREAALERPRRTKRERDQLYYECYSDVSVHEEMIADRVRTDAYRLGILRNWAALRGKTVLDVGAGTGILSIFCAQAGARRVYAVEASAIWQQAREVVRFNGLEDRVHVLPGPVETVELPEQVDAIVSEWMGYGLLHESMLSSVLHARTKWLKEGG

Test [2] concerns the target FLAG-tagged NADK N2 construct (residues 106-446) (human) (UniProt O95544). The test is described as follows: co-IP.
The target in test [3] is T2, GST-NADK (human) (UniProt O95544).
T2 sequence: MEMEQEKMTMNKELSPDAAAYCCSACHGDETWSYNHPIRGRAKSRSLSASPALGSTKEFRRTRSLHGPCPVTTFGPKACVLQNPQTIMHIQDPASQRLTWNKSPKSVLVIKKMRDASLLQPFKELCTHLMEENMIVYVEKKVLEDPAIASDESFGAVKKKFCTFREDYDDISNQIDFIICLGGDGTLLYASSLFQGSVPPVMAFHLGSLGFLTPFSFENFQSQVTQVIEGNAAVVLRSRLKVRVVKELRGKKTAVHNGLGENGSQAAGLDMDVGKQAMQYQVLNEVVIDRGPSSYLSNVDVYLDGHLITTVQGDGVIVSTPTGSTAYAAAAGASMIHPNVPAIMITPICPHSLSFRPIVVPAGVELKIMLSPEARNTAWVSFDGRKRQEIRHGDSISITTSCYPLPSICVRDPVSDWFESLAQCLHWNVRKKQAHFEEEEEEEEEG
The test is described as follows: pull-down.

Test [4] has as its target T3, HA-tagged full-length NADK (human) (UniProt O95544).
T3 sequence: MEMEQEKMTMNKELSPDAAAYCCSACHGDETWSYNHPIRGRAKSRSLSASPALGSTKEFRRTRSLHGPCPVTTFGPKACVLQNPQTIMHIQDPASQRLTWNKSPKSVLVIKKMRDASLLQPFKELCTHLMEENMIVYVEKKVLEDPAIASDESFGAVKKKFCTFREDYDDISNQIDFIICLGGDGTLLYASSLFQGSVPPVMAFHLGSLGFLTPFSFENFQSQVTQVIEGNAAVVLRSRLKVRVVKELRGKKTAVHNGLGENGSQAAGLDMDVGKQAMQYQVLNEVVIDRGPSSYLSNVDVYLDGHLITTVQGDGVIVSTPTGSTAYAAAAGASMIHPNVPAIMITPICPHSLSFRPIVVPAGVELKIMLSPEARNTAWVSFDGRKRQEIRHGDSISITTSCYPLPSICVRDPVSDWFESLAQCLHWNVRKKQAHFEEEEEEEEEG
Kind of test: co-IP.

Test [5] addresses T4, endogenous NADK (human (endogenous in HEK293T)) (UniProt O95544).
T4 sequence: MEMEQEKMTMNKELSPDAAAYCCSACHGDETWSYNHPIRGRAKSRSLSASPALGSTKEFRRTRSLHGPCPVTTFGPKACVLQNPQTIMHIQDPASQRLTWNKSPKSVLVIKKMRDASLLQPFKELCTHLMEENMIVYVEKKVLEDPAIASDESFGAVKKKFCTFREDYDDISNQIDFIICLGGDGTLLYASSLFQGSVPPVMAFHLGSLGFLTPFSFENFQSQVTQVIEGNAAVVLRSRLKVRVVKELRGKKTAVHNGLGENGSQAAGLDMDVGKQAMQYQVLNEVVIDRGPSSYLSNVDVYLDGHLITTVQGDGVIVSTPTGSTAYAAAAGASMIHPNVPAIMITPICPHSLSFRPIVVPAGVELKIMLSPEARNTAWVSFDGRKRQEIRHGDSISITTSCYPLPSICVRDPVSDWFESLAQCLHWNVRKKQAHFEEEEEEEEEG
Kind of test: co-IP.

Test [6] deals with GST-PRMT6 (UniProt Q96LA8). Kind of test: pull-down.
Test [7] concerns the target HIS-PRMT6 (UniProt Q96LA8). Kind of test: pull-down.

No constants are given. Whether binding was seen depends on the method and setting. For some assays here: In cells and extracts the contact can be indirect. Some binding calls cover weakened binding; strength is not graded here. For some assays here: Sequences can lack the tags named with a protein.

In the case of “HA-tagged full-length PRMT6 (from UniProt Q96LA8 1-375) (enzyme)”, the binding entry in test [1] and in test [2] was “binds” in each case.
For “HIS-PRMT6 (from UniProt Q96LA8 1-375) (enzyme)”, in test [3], the binding entry is “binds”.
For the molecule “FLAG-tagged PRMT6 D3 construct (from UniProt Q96LA8 1-375) (domain or fragment)”, in test [4], the binding result is “binds”.
On the same count and under the same terms, for “FLAG-tagged full-length PRMT6 (from UniProt Q96LA8 1-375) (enzyme)” the value was “binds”.
Still for that read-out and setting: the value for “FLAG-tagged PRMT6 D1 truncation mutant (1-182) (from UniProt Q96LA8 1-182) (domain or fragment)” was “no binding”.
As for “endogenous PRMT6 (from UniProt Q96LA8 1-375) (enzyme)”, the binding result in test [5] is on record as “binds”.
As to “FLAG-tagged PRMT6 D2 construct (from UniProt Q96LA8 86-375) (domain or fragment)”, in test [4], the binding entry is given as “binds”.
With “PRMT6 overexpressed in HEK293T cells (from UniProt Q96LA8 1-375) (enzyme)”, the binding entry in test [3] was “binds”.

B1: NADK overexpressed in HEK293T cells (enzyme, UniProt O95544 1-446)
chain: MEMEQEKMTMNKELSPDAAAYCCSACHGDETWSYNHPIRGRAKSRSLSASPALGSTKEFRRTRSLHGPCPVTTFGPKACVLQNPQTIMHIQDPASQRLTWNKSPKSVLVIKKMRDASLLQPFKELCTHLMEENMIVYVEKKVLEDPAIASDESFGAVKKKFCTFREDYDDISNQIDFIICLGGDGTLLYASSLFQGSVPPVMAFHLGSLGFLTPFSFENFQSQVTQVIEGNAAVVLRSRLKVRVVKELRGKKTAVHNGLGENGSQAAGLDMDVGKQAMQYQVLNEVVIDRGPSSYLSNVDVYLDGHLITTVQGDGVIVSTPTGSTAYAAAAGASMIHPNVPAIMITPICPHSLSFRPIVVPAGVELKIMLSPEARNTAWVSFDGRKRQEIRHGDSISITTSCYPLPSICVRDPVSDWFESLAQCLHWNVRKKQAHFEEEEEEEEEG
As to B1, the binding result in test [6] is “binds”.

B2: GST-NADK (enzyme, UniProt O95544 1-446)
chain: MEMEQEKMTMNKELSPDAAAYCCSACHGDETWSYNHPIRGRAKSRSLSASPALGSTKEFRRTRSLHGPCPVTTFGPKACVLQNPQTIMHIQDPASQRLTWNKSPKSVLVIKKMRDASLLQPFKELCTHLMEENMIVYVEKKVLEDPAIASDESFGAVKKKFCTFREDYDDISNQIDFIICLGGDGTLLYASSLFQGSVPPVMAFHLGSLGFLTPFSFENFQSQVTQVIEGNAAVVLRSRLKVRVVKELRGKKTAVHNGLGENGSQAAGLDMDVGKQAMQYQVLNEVVIDRGPSSYLSNVDVYLDGHLITTVQGDGVIVSTPTGSTAYAAAAGASMIHPNVPAIMITPICPHSLSFRPIVVPAGVELKIMLSPEARNTAWVSFDGRKRQEIRHGDSISITTSCYPLPSICVRDPVSDWFESLAQCLHWNVRKKQAHFEEEEEEEEEG
Take B2: in test [7], the binding entry was “binds”.

Source of the values: article doi:10.1101/2024.10.11.617635 (bioRxiv, 2024).
